The text below walks through data of EP1321467A2, “High affinity inhibitors for target validation and uses thereof” (Princeton University, priority 1999, dated 2000).

By UniProt entry, the sequences of proteins in these tests, tags left out. Where a name states a change or a piece, a line headed by the entry shows the natural chain unless it says otherwise. Chains listed by the source or under a name are the forms on record and can include a tag or linker.
UniProt P00546: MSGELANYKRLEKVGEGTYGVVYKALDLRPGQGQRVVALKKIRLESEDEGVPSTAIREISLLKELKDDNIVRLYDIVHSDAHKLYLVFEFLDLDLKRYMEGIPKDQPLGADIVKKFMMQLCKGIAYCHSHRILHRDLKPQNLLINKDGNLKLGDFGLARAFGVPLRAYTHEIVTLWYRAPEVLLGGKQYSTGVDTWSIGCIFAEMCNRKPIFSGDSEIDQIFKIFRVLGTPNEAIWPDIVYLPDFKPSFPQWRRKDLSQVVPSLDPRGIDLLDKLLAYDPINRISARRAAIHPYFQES
Cdc28-as1-His6 (P00546, form named): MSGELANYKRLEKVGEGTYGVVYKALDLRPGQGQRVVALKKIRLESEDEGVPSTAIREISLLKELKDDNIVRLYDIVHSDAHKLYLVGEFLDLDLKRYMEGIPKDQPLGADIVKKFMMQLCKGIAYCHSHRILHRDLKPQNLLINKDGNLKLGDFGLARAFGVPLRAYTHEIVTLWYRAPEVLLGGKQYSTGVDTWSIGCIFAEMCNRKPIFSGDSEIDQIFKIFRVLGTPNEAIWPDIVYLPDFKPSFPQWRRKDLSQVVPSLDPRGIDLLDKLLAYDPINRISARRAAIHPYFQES

These are yes or no findings as the source states them, for the method shown. Some results given as binding are weak or reduced against the parent protein; the word gives no strength. Sequences can lack the tags named with a protein.

The experiment deals with T1, MBP-Clb2 (Saccharomyces cerevisiae) (UniProt P24869).
T1 sequence (looked up): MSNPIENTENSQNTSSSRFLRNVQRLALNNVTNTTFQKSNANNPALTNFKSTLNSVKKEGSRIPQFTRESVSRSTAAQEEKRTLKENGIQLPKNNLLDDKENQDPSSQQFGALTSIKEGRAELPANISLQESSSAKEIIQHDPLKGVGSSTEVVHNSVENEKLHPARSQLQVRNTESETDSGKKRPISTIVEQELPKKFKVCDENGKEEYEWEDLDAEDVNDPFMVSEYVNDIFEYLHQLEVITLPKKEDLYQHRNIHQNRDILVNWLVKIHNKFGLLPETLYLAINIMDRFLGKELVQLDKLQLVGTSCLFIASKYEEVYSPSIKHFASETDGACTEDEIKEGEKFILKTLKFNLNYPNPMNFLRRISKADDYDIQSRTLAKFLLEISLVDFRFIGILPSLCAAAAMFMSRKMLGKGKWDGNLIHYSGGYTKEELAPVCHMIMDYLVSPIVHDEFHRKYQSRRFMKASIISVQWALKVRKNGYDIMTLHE
As to the kind of experiment: purified proteins mixed; active cyclin-Cdk complex shown by Histone H1 kinase activity.

Take “Cdc28-His6 (from UniProt P00546 1-298) (enzyme)”: the binding result is on record as “binds”.

As for “Cdc28-as1-His6 (from UniProt P00546 1-298) (enzyme)”, the binding result is reported as “binds”.
